Assay results: PubChem BioAssay AID485314 (National Center for Advancing Translational Sciences (NCATS), 2010)
In all, about 340,000 compounds went through this assay and about 4,500 (1.3%) were called active. The shares of active, inactive and inconclusive entries below differ from those in the screen. The call rests on the fitted dose curve; in most records, active means well fitted inhibition curve with a large enough effect; inconclusive means small, poorly fitted or top-dose-only effect, or another doubt; inactive means no such curve, though single readings can be large or run the other way. Potencies beside an inconclusive call are fits to weak or partial responses and may not hold up.

target: DNA polymerase beta (Homo sapiens) (UniProt P06746); test: qHTS Assay for Inhibitors of DNA Polymerase Beta; settings: Pol beta primer extension/strand displacement, fluorescence kinetic; activity change, negative = inhibition: at 114 µM (top of the series)
Outline: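 Homogeneous kinetic assay of primer extension and strand displacement by 10 nM Pol beta, preincubated 15 min at room temperature with compound before 50 nM substrate (final) was added. Read at 0 and 10 min; four-parameter Hill fit.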
On the % scale 0 is the no-effect control and ±100 the full control effect; potency means the concentration at half of the fitted maximal effect.

| Compound | Potency | activity change, negative = inhibition |
| --- | --- | --- |
| Nn1c(SCC(=O)Nc2cc(C(F)(F)F)ccc2Cl)nncc1=O | inactive |  |
| O=C(NCCCN1CCCCCC1)c1cc2c(=O)oc3ccccc3c2s1 | inactive |  |
| Cc1nnc(NC2(C(F)(F)F)C(=O)Nc3c2c(=O)n(C)c(=O)n3C)s1 (centres undefined) | inconclusive: 89.1 µM [inhibitor, single point] |  |
| Cc1ccc(NC(=O)C2CCN(S(=O)(=O)c3cccnc3)CC2)cc1C |  | inconclusive: -32.7% [inhibitor] |
| O=C1CC(Nc2ccc(N3CCOCC3)cc2)C(=O)N1Cc1ccccc1 (centres undefined) | inconclusive: 0.141 µM [inhibitor, full curve, poor fit] |  |
| c1ccc(Nc2nc(-c3ccncc3)nc3ccccc23)cc1 | inconclusive: 39.8 µM [inhibitor, partial curve, poor fit] |  |
| COc1cc(SC)ccc1C(=O)Nc1cccc(C2OCCCO2)c1 | inactive |  |
| N=C1/C(=C/c2ccc(-c3cccc(C(=O)O)c3)o2)C(=O)N=C2SC(CC(=O)N3CCOCC3)=NN12 | inconclusive: 89.1 µM [inhibitor, single point] |  |
| CCC(Sc1nc(N)c(NC(=O)c2ccc(OC)cc2)c(=O)[nH]1)C(=O)O (centres undefined) | inconclusive: 0.141 µM [inhibitor, full curve, poor fit] |  |
| C=CCn1c(SCC(=O)NC2CCCCC2)nnc1-c1ccccn1 | inconclusive: 70.8 µM [inhibitor, single point] |  |
| COc1ccc(C(=O)Nc2c(N)nc(SCC(=O)NCC3CCCO3)[nH]c2=O)cc1OC (centres undefined) | inconclusive: 3.16 µM [inhibitor, single point] |  |
| O=C(O)/C=C\C(=O)Nc1ccccc1C(=O)NC1CCCCC1 | inconclusive: 0.708 µM [inhibitor, full curve, poor fit] |  |
| O=C/C=C/c1coc2ccc3ccccc3c2c1=O | inactive |  |
| N#C/C(=C\c1ccc(OCc2ccccc2)cc1)C(=O)Nc1ccc(C(=O)O)cc1 | inactive |  |
| COc1cccc(OCCn2cc(/C=N/NC(=O)c3ccncc3)c3ccccc32)c1 | inconclusive: 22.4 µM [inhibitor, single point] |  |
| CCc1ccc(NC(=O)c2noc3c2CCC3)cc1 | inconclusive: 44.7 µM [inhibitor, full curve, poor fit] |  |
| Cc1cccc(OCC(=O)NCC(=O)N/N=C/c2ccc(O)cc2O)c1 |  | inconclusive: -30.1% [inhibitor] |
| COc1ccccc1CNC(=O)c1sc2nc3n(c(=O)c2c1C)CCC3 | inactive |  |
| COc1ccc(C(C)=O)cc1COc1cc(C)c(Cl)c(C)c1 | inconclusive: 89.1 µM [inhibitor, single point] |  |
| COc1ccccc1N/C(N)=N/c1nc(CSc2nc3ccccc3s2)cc(=O)[nH]1 | inconclusive: 4.47 µM [inhibitor, full curve] |  |
| COC(=O)c1cnn2c(C(F)(F)F)cc(-c3ccco3)nc12 | inconclusive: 25.1 µM [inhibitor, single point] |  |
| O=[N+]([O-])c1ccc(/C=N/N=C/c2ccc([N+](=O)[O-])o2)o1 | inactive |  |

Rewritten in CSV form: part of the list above
Compound,Potency,"activity change, negative = inhibition"
Cc1ccc(NC(=O)C2CCN(S(=O)(=O)c3cccnc3)CC2)cc1C,,inconclusive: -32.7% [inhibitor]
CCC(Sc1nc(N)c(NC(=O)c2ccc(OC)cc2)c(=O)[nH]1)C(=O)O (centres undefined),"inconclusive: 0.141 µM [inhibitor, full curve, poor fit]",
COc1ccccc1CNC(=O)c1sc2nc3n(c(=O)c2c1C)CCC3,inactive,

The results go on:

| Compound | Potency | activity change, negative = inhibition |
| --- | --- | --- |
| Cc1oc2ccc(OCc3ccccc3Cl)cc2c1C(=O)O | inactive |  |
| CCN(Cc1ccccc1)C(=O)C1CCN(S(=O)(=O)c2c(C)noc2/C=C/c2ccc(C)cc2)CC1 | inconclusive: 0.178 µM [inhibitor, full curve, poor fit] |  |
| Oc1cccc(C(Nc2nccs2)c2ccc3cccnc3c2O)c1 (centres undefined) | inconclusive: 20 µM [inhibitor, single point] |  |
| CCCC(CCC)C(=O)Nc1cccc(-c2cn3cccnc3n2)c1 | inconclusive: 89.1 µM [inhibitor, single point] |  |
| CCn1c(SCc2ccccc2F)nc(=O)c2c(C(=O)OC)cc(C3CC3)nc21 | inactive |  |
| CCN=C1SC(CC(=O)NCCc2ccc(OC)c(OC)c2)C(=O)N1CC (centres undefined) | inconclusive: 1.12 µM [inhibitor, full curve] |  |
| Cc1ccc(NC(=O)CN2C(=O)CCc3cc(S(=O)(=O)N4CCCCC4)ccc32)cc1N(C)C | inconclusive: 89.1 µM [inhibitor, single point] |  |
| Cc1cccc(C)c1OCc1n[nH]c(=S)o1 | inconclusive: 89.1 µM [inhibitor, single point] |  |
| Nc1nc(N)c(N=Nc2ccc(C(=O)O)cc2)c(N)n1 | inconclusive: 7.08 µM [inhibitor, partial curve] |  |
| COc1cccc(/C=C/c2ccc3ccccc3n2)c1OC(C)=O | inconclusive: 89.1 µM [inhibitor, single point] |  |
| Cc1nn(-c2ccccc2)c(C)c1-c1cc(C(=O)N/N=C/c2cccnc2)[nH]n1 | inconclusive: 3.16 µM [inhibitor, full curve, poor fit] |  |
| C/C(=N\Nc1ccc(S(N)(=O)=O)cc1[N+](=O)[O-])c1cccnc1 | inconclusive: 79.4 µM [inhibitor, single point] |  |
| COc1ccccc1OCCC(=O)OCC(=O)Nc1ncc(Cl)cc1Cl | inconclusive: 15.8 µM [inhibitor, partial curve] |  |
| CCOc1cc(CNc2nn[nH]n2)ccc1OCC(=O)NC(C)(C)C | inactive |  |
| Cc1nnc(NC(=O)/C=C/c2ccco2)s1 | active: 31.6 µM |  |
| COc1ccc(C2=NN(c3ccccc3)C(c3cn(CCC(=O)O)nc3-c3ccccc3)C2)cc1 (centres undefined) | inconclusive: 89.1 µM [inhibitor, single point] |  |
| COc1ccc(-n2c(O)c(/C=N/Nc3nc(C)cc(C)n3)c3ccccc3c2=O)cc1OC | inconclusive: 79.4 µM [inhibitor, single point] |  |
| CN1CCN(C(=O)Nc2cccc(Cl)c2)c2cccnc21 | inactive |  |
| COc1ccc(S(=O)(=O)Nc2cccc(-c3ccc(N4CCCCCC4)nn3)c2)c(OC)c1 |  | inconclusive: -30.5% [inhibitor] |
| Cc1ccc(N2CC(NC(=O)C3CCCCC3)CC2=O)cc1C (centres undefined) | inconclusive: 79.4 µM [inhibitor, single point] |  |
| O=[N+]([O-])c1cccc2cn[nH]c12 | inactive |  |
| O=C(O)c1cc(Cl)c(Cl)cc1C(=O)N1CCCC1 | inconclusive: 89.1 µM [inhibitor, single point] |  |
